Assay results: patent publication US10137212B2, “Tetrahydroxamate chelators of zirconium89 and niobium90 for use in diagnostic applications” (priority 2013, dated 2018)

Test: complexation of ligands with ^89Zr, yield by ITLC-SG
Type: physicochemical
Conditions: ~50 MBq ^89Zr reacted with 38 nmol of ligand
Description: All solutions described below were prepared with de-ionized water purified through a Chelex column prior to use. Stock solutions of ^89Zr at pH 7 were prepared as follow: to 450 μL of the ^89Zr solution in oxalic acid were added 450 μL of a 1M Na2CO3 solution and the pH was adjusted to 7 by addition of small aliquots of a 0.1 M Na2CO3 or 0.1 M HCl. 450 μL of water containing 3% bovine serum albumin were then added. To 45 μL of stock solution (˜1.3 MBq of ^89Zr in a typical experiment) were added 7.5 nmol (5 μL) of L5, L6, L7, C5, C6, or C7 in DMSO or the natural siderophore desferrioxamine B (DFB) mesylate in de-ionized water. These solutions were incubated at desired temperatures and time of reaction and analyzed by ITLC-SG using a 50 mM EDTA (ethylenediaminetetraacetic acid) solution adjusted to pH=7 in de-ionized water as eluant, and analyzed with a Typhoon 8600 scanner (GE Healthcare) in phosphorimaging mode. The percentage of the activity bound to the ligand after TLC was calculated by converting the TLC scan into a chromatogram and integrating the peak corresponding to the spot at the bottom of the TLC. Activity ratios were averaged out of a minimum of 2 TLCs for each condition. The influence of time and temperature on the complexation yield of ^89Zr by L5, L6, L7, C5, C6 and C7 and DFB is shown in Table 1. […]

Row | Structure (SMILES) | specific activity achieved
1 | O=C1CCCCCCN(O)C(=O)CCCCCCN(O)C(=O)CCCCCCN(O)C(=O)CCCCCCN1O [Ligand C6] | 1.21 MBq/nmol
2 | CCCCCC(=O)N(O)CCCCCCC(=O)N(O)CCCCCCC(=O)N(O)CCCCCCC(=O)N(O)CCC [Ligand L6] | 1.26 MBq/nmol
3 | CCCCC(=O)N(O)CCCCCC(=O)N(O)CCCCCC(=O)N(O)CCCCCC(=O)N(O)CCC [Ligand L5] | 0.96 MBq/nmol
4 | CC(=O)N(O)CCCCCNC(=O)CCC(=O)N(O)CCCCCNC(=O)CCC(=O)N(O)CCCCCN [DFB, desferrioxamine B, reference compound] | 1.31 MBq/nmol
5 | CCCCCCC(=O)N(O)CCCCCCCC(=O)N(O)CCCCCCCC(=O)N(O)CCCCCCCC(=O)N(O)CCC [Ligand L7] | 1.31 MBq/nmol
6 | O=C1CCCCCCCN(O)C(=O)CCCCCCCN(O)C(=O)CCCCCCCN(O)C(=O)CCCCCCCN1O [Ligand C7] | 1.31 MBq/nmol
7 | O=C1CCCCCN(O)C(=O)CCCCCN(O)C(=O)CCCCCN(O)C(=O)CCCCCN1O [Ligand C5] | 0.30 MBq/nmol
